Test results from patent US20200291121A1.
No constants are given. Whether binding was seen depends on the method and setting.

Molecular target: rabbit IL-5Rα, recombinant extracellular domain (rabbit)
Assay: BLI (Octet RED 384), antibody immobilised on AR2G sensors, antigen in solution

B1: BCD133-03-021 (antibody, human IgG1, kappa, V domains shown)
VH: QVQLQESGGGLVQPGGSLRLSCAASGFTFSNYAMSWVRQAPGKGLEWVSAINSGGKSTNYADSVKGRFTISRDNAKNTLYLQMNSLRAEDTAVYYCADYATNYGVPYFGSWGQGTMVTVSS
VL: QSVLTQPPSVSAAPGQRVTISCSGSRSNIGSGYDVHWYQQLPGTAPKLLIYDDNNRPSGVPDRFSGSKSGTSASLAITGLQAEDEADYYCQSYDSSLSGHVVFGGGTKLTVLR
binding: no binding
